The record followed here is article PMC3139667, “A Screen against Leishmania Intracellular Amastigotes: Comparison to a Promastigote Screen and Identification of a Host Cell-Specific Hit” (PLoS Neglected Tropical Diseases, 2011).

Where two headings read alike, the source gives them in different places. Bounds are passed on as bounds.

For assay [1], the system named is L. donovani intracellular amastigotes. The experiment in a line: Intracellular amastigote high-throughput image-based assay in infected THP-1 macrophages. The settings on record: Leishmania donovani, THP-1, 72 h, read-out: GI50 Intracellular amastigote. Type of assay: cell-based. The method, then: Sterile, black, 96-well, clear bottom plates (Greiner Bio-One) were seeded with exponentially growing THP-1 (5×10^5cells/ml). THP-1 were treated with 0.1 µM phorbol myristate acetate (PMA, Sigma) at 37°C for 48 h to achieve differentiation into adherent, non-dividing macrophages. Maturation of THP-1 cells towards monocyte-macrophage like cells is essential to avoid parasitized cells being overgrown by replicating cells. After activation by PMA, cells were washed and incubated with complete RPMI medium containing stationary phase L. donovani promastigotes at a macrophage/promastigote ratio of 1/15. After 4 h incubation at 37°C, non-internalized promastigotes were removed by 2–3 successive washes with RPMI containing 5% FBS and 5% horse serum. Test compounds (10 µM), positive control (2 µM amphotericin B) or negative control (1% DMSO) were then added to the cultures using a Biomek FXp liquid handler (Beckman Coulter). […] The intensity of parasite nucleus was too low to be detected with a 20X objective. […] Host cell nuclei and parasite kinetoplasts were counted and the ratio of parasites DNA to host nuclei was selected as the measurement output. Percentage inhibition of parasite growth was calculated as [1-(P/hcx-P/hc^+)/(P/hc^−-P/hc^+)]*100 where P/hcx, P/hc^+ and P/hc^− are parasite per host cell ratio for every well, positive control (amphotericin B) and negative control (DMSO) respectively. […]

Assay [2] concerns L. donovani axenic amastigotes. In words: Dose response study against axenic amastigotes (CellTiter-Glo). Type of assay: cell-based. The note with it: Leishmania donovani, read-out: GI50 Axenic amastigote. As to the method:
L. donovani axenic amastigotes (5×10^5 cells/ml in axenic amastigote media) were dispensed in sterile 96-well flat white opaque assay plates (Greiner Bio-One) using a WellMate multichannel dispenser (Matrix). […] 1% DMSO and amphotericin B (2 µM, 1% DMSO final concentration) were added as negative and positive controls respectively. Axenic amastigotes were incubated with the compounds for 72 h at 37°C with 5% CO2. Parasite viability was then measured using CellTiter-Glo as described above.
On the technique in general: ATP-based viability assays read luminescence as a measure of living cells.

Another assay has as its system THP-1. In words: Host cell toxicity: THP-1 host nuclei counts in the image-based assay. The settings on record: for GI50: Homo sapiens, THP-1, 72 h, read-out: GI50 THP-1. The method, then:
Sterile, black, 96-well, clear bottom plates (Greiner Bio-One) were seeded with exponentially growing THP-1 (5×10^5cells/ml). THP-1 were treated with 0.1 µM phorbol myristate acetate (PMA, Sigma) at 37°C for 48 h to achieve differentiation into adherent, non-dividing macrophages. Maturation of THP-1 cells towards monocyte-macrophage like cells is essential to avoid parasitized cells being overgrown by replicating cells. After activation by PMA, cells were washed and incubated with complete RPMI medium containing stationary phase L. donovani promastigotes at a macrophage/promastigote ratio of 1/15. After 4 h incubation at 37°C, non-internalized promastigotes were removed by 2–3 successive washes with RPMI containing 5% FBS and 5% horse serum. Test compounds (10 µM), positive control (2 µM amphotericin B) or negative control (1% DMSO) were then added to the cultures using a Biomek FXp liquid handler (Beckman Coulter). Cultures were incubated at 37°C for 72 h. Cells were then washed with phosphate-buffered saline (PBS), fixed for 30 minutes with 4% formaldehyde, rinsed again with PBS, stained for 2 h with 4′,6′-diamidino-2-phenylindole (DAPI 300 nM) and finally washed with PBS. […] Images were acquired with an INCell Analyzer 1000 automated epi-fluorescent microscope (G.E. Healthcare). The excitation and emission filters used to detect DAPI were 350/50 nm and 460/40 nm respectively. Eight image fields were acquired per well with a 20X objective. The proprietary INCell Developer Toolbox 1.7 software was used for image analysis. Segmentation parameters were set to identify host nuclei with a minimum area of 250 µm^2 and parasite kinetoplast with an average area of 1 µm^2. The intensity of parasite nucleus was too low to be detected with a 20X objective. A border, representing the boundary of the cell, was drawn around the nucleus (total area between 700 and 2000 µm^2). Only parasites found within this area were included in the calculation to eliminate extracellular parasites. False positive parasite detection in the nucleus was also excluded from the calculation. Host cell nuclei and parasite kinetoplasts were counted and the ratio of parasites DNA to host nuclei was selected as the measurement output. Percentage inhibition of parasite growth was calculated as [1-(P/hcx-P/hc^+)/(P/hc^−-P/hc^+)]*100 where P/hcx, P/hc^+ and P/hc^− are parasite per host cell ratio for every well, positive control (amphotericin B) and negative control (DMSO) respectively. Calculation of Z' factor and GI50 curve fitting were carried out as described above.

Assay [3] has as its system L. donovani promastigotes. The experiment in a line: Promastigote high-throughput ATP-bioluminescence assay. The settings on record: Leishmania donovani, read-out: GI50 Promastigote. Type of assay: cell-based. As to the method: L. donovani promastigotes from an exponentially growing culture were diluted to 10^6/ml in RPMI containing 10% FBS and 10% BHT. The diluted culture (99 µl/well) was dispensed in sterile 96-well flat white opaque assay plates (Greiner Bio-One) using a WellMate multichannel dispenser (Matrix). 1 µl of 1 mM test compound dissolved in DMSO was added to the plates for a final concentration of 10 µM compound and 1% DMSO. Amphotericin B was added as a positive control (final concentration 2 µM, 1% DMSO) and as a negative control, 1 µl DMSO was added (1% final concentration). Compounds and controls were added to the assay plate with the robotic dispenser Biomek FXp liquid handler (Beckman Coulter). Promastigotes were incubated with the compounds for 72 h at 27°C. […] After lysis, the resulting ATP-bioluminescence was measured using the Analyst HT plate reader (Molecular Devices). Percentage inhibition of parasite growth was calculated for each well as [1-(RLUx-RLU^+)/(RLU^--RLU^+)]*100 where RLUx, RLU^+ and RLU^- are respectively the Relative Light Units for each well, positive (amphotericin B) and negative (DMSO) controls. […] The Z' factor, calculated as 1-(3σc++3σc−)/(µc+−µc−) where σc+, σc−, µc+ and µc− are respectively the standard deviation and mean values of positive and negative controls, is reflective of the assay signal dynamic range and the data variation associated with signal measurement. […]

Usually GI50 stands for the concentration giving 50% growth inhibition. `Clc1ccc(CO/N=C(\Cn2ccnc2)c2ccc(Cl)cc2Cl)c(Cl)c1` [Oxiconazole]: the GI50 is 6600 nM in assay [1] (L. donovani in THP-1, 72 h, parasites per host cell); 530 nM in assay [2] (72 h at 37°C, CellTiter-Glo); greater than 16500 nM with THP-1; 2650 nM in assay [3] (72 h at 27°C, CellTiter-Glo). Also, the Selectivity in the assay with THP-1 (ratio between parasite GI50 and THP-1 GI50) worked out at 2.51.
With `CCCCCCCCCCCCCCCC[n+]1ccccc1` [Cetylpyridinium chloride], the GI50 in assay [1] worked out at 410 nM; in assay [2] (72 h), 920 nM; in the assay on THP-1, 9160 nM; in assay [3] (72 h), 3300 nM. In the assay on THP-1, the Selectivity was 22.34.
